Source: PubChem BioAssay AID1963582 (Tox21, 2024).

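A p53 response-element beta-lactamase reporter in HCT-116 cells, giving a fitted potency from the FRET ratio after 16 hours. The concentration series mostly goes up to 66 µM. Potency is the fitted concentration that gives half the maximal activation; a lower value means a more potent compound. Calls are based on the whole dose curve, and inconclusive means weak or mixed curves.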

Values are in µM. Every entry below has the call inconclusive. Only part of the assay is shown, chiefly results filed as inconclusive. A potency from a partial, single-point or poor curve is only a rough figure. Some entries filed as inconclusive have a full curve. The first word of each remark tells which way the curve ran; it can be opposite to the aim of the assay.

* C=C(CC)C(=O)c1ccc(OCC(=O)O)c(Cl)c1Cl | potency 50.98 µM (fluorescent, single point)
* c1cc2ccc3cccc4ccc(c1)c2c34 | potency 30.26 µM
* COc1ccc(C(=O)c2ccc(C)cc2)c(O)c1 | potency 20.67 µM (rising, partial curve)
* Cc1ccc(S(=O)(=O)C(I)I)cc1 | potency 16.23 µM (fluorescent)
* C[C@H](CCC(=O)O)[C@H]1CC[C@H]2[C@@H]3CC[C@@H]4C[C@H](O)CC[C@]4(C)[C@H]3CC[C@]12C | potency 40.62 µM (rising, partial curve)
* CCCCCCCCCOC(=O)c1ccc(O)cc1 | potency 50.61 µM (single point)
* Cn1cnc([N+](=O)[O-])c1Sc1ncnc2nc[nH]c12 | potency 19.92 µM (activator)
* Cc1c(C)n(Cc2ccccc2)c2ccc(C(=O)OCCN(C)C)cc12 | potency 15.82 µM (rising, partial curve)
* C[C@]12CCC(=O)C=C1CC[C@@H]1[C@@H]2CC[C@@]2(C)[C@H]1CC[C@]2(C)O | potency 24.3 µM
* Oc1cccc(-c2c3nc(c(-c4cccc(O)c4)c4ccc([nH]4)c(-c4cccc(O)c4)c4nc(c(-c5cccc(O)c5)c5ccc2[nH]5)CC4)C=C3)c1 | potency 25.08 µM (falling, single point)
* [O-][n+]1ccccc1SSc1cccc[n+]1[O-] | potency 4.344 µM (activator, partial curve, poor fit)
* CC1(C)CC/C(=C/c2ccc(Cl)cc2)C1(O)Cn1cncn1 (centres unmarked) | potency 6.065 µM (fluorescent)
* O=C(N[C@@H]1N=C(c2ccccc2F)c2cccc3c2N(CC3)C1=O)c1cc2ccccc2[nH]1 | potency 0.9983 µM (rising, full curve, poor fit)
* COC(=O)c1nc(Cl)c(Cl)nc1N | potency 22.35 µM (fluorescent)
* Cc1cc(CCN2CCN(c3nsc4ccccc34)CC2)cc2c1NC(=O)CC2(C)C | potency 51.34 µM
* CC/C=C\C/C=C\C/C=C\CCCCCCCC(=O)OC | potency 51.34 µM (activator)
* NCCNc1cccc2ccccc12 | potency 20.42 µM (fluorescent, full curve, poor fit)
* CC(C)N1C(=O)N(c2ccccc2)CSC1=NC(C)(C)C | potency 20.44 µM
* CS(=O)(=O)CCNCc1ccc(-c2ccc3ncnc(Nc4ccc(OCc5cccc(F)c5)c(Cl)c4)c3c2)o1 | potency 9.983 µM (rising, partial curve, poor fit)
* Cc1cc(O)ccc1O | potency 41.23 µM (fluorescent)
* OC(CN1CCC(Cc2ccc(F)cc2)CC1)c1ccc(Cl)cc1 (centres unmarked) | potency 0.7067 µM (rising, partial curve, poor fit)
* CC(=O)CC(=O)c1ccccc1 | potency 8.188 µM (rising, full curve, poor fit)
* CC(C)CC(C)(c1ccc(O)cc1)c1ccc(O)cc1 | potency 51.34 µM
* Oc1ccc(C(c2ccc(O)cc2)(C(F)(F)F)C(F)(F)F)cc1 | potency 15.62 µM (fluorescent)
* Cc1cc(SCc2sc(-c3ccc(C(F)(F)F)c(F)c3)nc2C)ccc1OCC(=O)O | potency 6.463 µM (fluorescent, partial curve)
* Cc1c(C)c2c(c(C)c1O)CCC(C)(COc1ccc(CC3SC(=O)NC3=O)cc1)O2 (centres unmarked) | potency 5.134 µM (rising, partial curve)
* CN(C)c1ccc(C(=O)c2ccc(N(C)C)cc2)cc1 | potency 1.447 µM (activator, full curve, poor fit)
* Brc1ccc(Oc2cc(Br)c(Br)cc2Br)c(Br)c1 | potency 16.36 µM (rising, full curve, poor fit)
* C=CCOC(Cn1ccnc1)c1ccc(Cl)cc1Cl (centres unmarked) | potency 45.75 µM
* CCCCCCCCNC(C)C(O)c1ccc(SC(C)C)cc1 (centres unmarked) | potency 25.08 µM (single point)
* N#C/C=C/c1ccccc1 | potency 51.34 µM (falling, single point)
* Nc1ccccc1-c1ccccc1 | potency 3.22 µM (rising, full curve)
* O=C(Nc1cccc([N+](=O)[O-])c1)c1cc2ccccc2cc1O | potency 1.821 µM (rising, single point)
* CN1CC[C@H](c2c(O)cc(O)c3c(=O)cc(-c4ccccc4Cl)oc23)[C@H](O)C1 | potency 0.5614 µM (rising, full curve, poor fit)

The first 3 entries again:

| structure | potency (µM) | remark |
|---|---|---|
| `C=C(CC)C(=O)c1ccc(OCC(=O)O)c(Cl)c1Cl` | 50.98 | fluorescent, single point |
| `c1cc2ccc3cccc4ccc(c1)c2c34` | 30.26 | - |
| `COc1ccc(C(=O)c2ccc(C)cc2)c(O)c1` | 20.67 | rising, partial curve |